# Test results taken from PubChem BioAssay AID493014 (National Center for Advancing Translational Sciences (NCATS), 2011).
# Out of some 340,000 compounds screened, about 170 (0.05%) were called active. The shares of active, inactive and inconclusive entries below differ from those in the screen. Calls come from the whole dose curve; as a rule, active = well fitted inhibition curve with a large enough effect in the signal ratio, with a control signal flat (not every such curve was filed as active); inconclusive = small, poorly fitted or top-dose-only effect, or effect the other way, or a change in a side signal; inactive = flat fitted curve, though single readings scatter; the % refers to the signal ratio. A potency beside an inconclusive call is a rough fit, not a confirmed value.
# Assay: qHTS Assay to Find Inhibitors of Chronic Active B-Cell Receptor Signaling;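 for activity change, negative = inhibition: plate controls were basal doxycycline-induced cells for no effect and cells given 10 µM MG132 for full effect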
# Details: ABC-DLBCL IkBa-CBG/CBR reporter, luminescence ratio (green luciferase fused to IkBa over red control in TMD8 lymphoma cells), 4 h; activity change, negative = inhibition: at 46.1 µM (top of the series)
# Procedure, shortened: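 Doxycycline induced both beetle luciferases in TMD8 lymphoma cells; IKK-driven degradation limits the IkappaBalpha-fused green signal, while red luminescence normalises for cell number and nonspecific effects. Compounds tested up to 46 uM, 4 hrs.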
# Potency is the fitted concentration of half-maximal effect.
Compound,Potency,"activity change, negative = inhibition"
COc1ccc(-n2nnnc2S(=O)(=O)Cc2ccc(C(=O)O)cc2)cc1,"inconclusive: 29.1 µM [rising, single point]",
COc1ccc(CCNS(=O)(=O)c2cc3c4c(c2)C(C)C(=O)N4CCC3)cc1OC (stereo not drawn),"inconclusive: 35.5 µM [falling, single point]",
O=C(/C(C=Nc1ccc(F)cc1)=C(/O)c1ccco1)C(F)(F)F,"inconclusive: 0.651 µM [rising, full curve, poor fit]",
O=C(N/N=C/c1ccc2c(c1)OCO2)c1ccc(COCC(F)(F)C(F)F)cc1,,inconclusive: -0.66%
CC(=O)c1ccc(N2CCN(C(=O)c3cc(-c4ccc5c(c4)OCO5)nc4ccccc34)CC2)cc1,,inconclusive: 8.62%
COc1cc2nc(Nc3ccc(C)c(C)c3)nc(N)c2cc1OC,,inconclusive: -11.3%
CC(=O)c1ccc(NC(=S)NNC(=O)NC2CCCCC2)cc1,,inconclusive: -4.17%
CCOc1ccc(S(=O)(=O)N(CC(=O)N/N=C/c2ccc(-c3ccc([N+](=O)[O-])cc3)o2)c2ccccc2)cc1,,inactive: 4.47%
O=C(CSc1nnnn1-c1ccc(F)cc1)Nc1ccccc1F,,inconclusive: -12.5%
Cc1ccnc(NC(=S)NC(=O)c2ccco2)c1,"inconclusive: 22.4 µM [falling, single point]",
Cc1nn(C)c(C(=O)NCc2ccc(Cl)cc2)c1Cl,,inactive: -5.16%
CCc1nnc(NC(=O)COC(=O)CN2C(=O)c3ccccc3C2=O)s1,,inconclusive: -3.49%
CCOC(=O)CN1C(=O)/C(=C/c2ccc(Cl)cc2)Oc2ccccc21,,inconclusive: 9.52%
Cc1cnc(NC(=O)c2ccc3c(c2)OCCO3)s1,"inconclusive: 8.2 µM [falling, partial curve]",
O=C(Cc1ccc(-c2ccccc2)cc1)Nc1ncccc1O,,inactive: -9.7%
COc1ccc(C2CC(c3ccccc3Br)=NN2c2ccc(S(N)(=O)=O)cc2)cc1 (stereo not drawn),,inconclusive: -2%
O=c1c2sccc2n(Cc2cccc(F)c2)c(=O)n1-c1ccc(F)cc1,,inactive: 11%
O=c1c2c(nc3c(-c4ccc(Cl)cc4)c[nH]n13)CCC2,"inconclusive: 25.1 µM [falling, single point]",
COc1ccc(S(=O)(=O)Cc2ccc(C(=O)N3CCN(c4cc(Cl)ccc4C)CC3)o2)cc1,"inconclusive: 5.17 µM [rising, single point]",
Cc1ccc(/C=C/c2nc3ccccc3n2S(=O)(=O)c2cccc(Cl)c2)cc1,"inconclusive: 3.55 µM [rising, full curve, poor fit]",
Cc1cccc(OCCNc2cc(N3CCOCC3)ccc2[N+](=O)[O-])c1,,inconclusive: -0.87%
CC(CC(=O)NCc1ccc(Cl)cc1Cl)CC1=NS(=O)(=O)c2ccccc2N1 (stereo not drawn),,inconclusive: -13.6%
Cc1cc(NO)c(C(C)C)cc1N=O,"inconclusive: 18.4 µM [falling, partial curve]",
COc1ccc(CCN2CC(C(=O)NCc3nc4ccccc4n3C)CCC2=O)cc1 (stereo not drawn),,inconclusive: -10.3%
O=C(COC(=O)C1CC(=O)N(Cc2ccco2)C1)Nc1ccc(F)cc1F (stereo not drawn),,inconclusive: 7.15%
COc1ccc(NC(=O)Nc2ccccc2F)cc1,"inconclusive: 4.61 µM [rising, full curve, poor fit]",

Compound,Potency,"activity change, negative = inhibition"
COCCN1C(=O)/C(=C/c2ccc(OCc3ccc(C(=O)O)cc3)c(OC)c2)SC1=Nc1ccccc1,,inconclusive: 9.06%
Cc1ccnc(NC(=O)C2CC(=O)N(Cc3ccccc3)C2)c1 (stereo not drawn),"inconclusive: 23.1 µM [falling, partial curve]",
CC(C)NS(=O)(=O)c1ccc(NC(=O)C(C)Oc2ccc(C(=O)c3ccccc3)cc2)cc1 (stereo not drawn),,inconclusive: -6.34%
COc1ccc(C(=O)N2CCN(c3ccc(C)cc3)CC2)cc1OC,,inactive: -0.619%
CCN1CCN(Cc2nnc(-c3ccccc3)o2)CC1,,inconclusive: 0.305%
COc1ccc(C(=O)c2c(C(F)(F)F)oc3c2C(=O)c2ccccc2C3=O)cc1OC,,inconclusive: -3.27%
COc1ccc(-c2csc3ncnc(N4CCN(S(=O)(=O)c5cccc(F)c5)CC4)c23)cc1,,inactive: -14.3%
CCCCCCCCCC(=O)NNC(=O)c1c(O)c2ccccc2n(CCC)c1=O,,inconclusive: -3.57%
Cc1ccccc1C(=O)NC(=S)Nc1cccc(NC(=O)C(C)C)c1,"inconclusive: 17.8 µM [falling, partial curve]",
Cc1ccc(C(=O)c2ccc(N3CCN(C)CC3)c([N+](=O)[O-])c2)cc1,,inconclusive: 10.5%
CC(=O)N1c2ccc(S(=O)(=O)NCCC(=O)NCCc3ccc(Cl)cc3)cc2CC1C (stereo not drawn),,inconclusive: -28.7%
COc1ccc(CCNC(=O)NC23CC4CC(CC(C4)C2)C3)cc1,,inconclusive: -5.48%
c1ccc2oc(-c3csc(N4CCOCC4)n3)cc2c1,,inconclusive: 12.9%
C=CCn1c(SCC(=O)Nc2sccc2C(N)=O)nc2sc(CC)cc2c1=O,,inconclusive: -1.06%
CCCCCCCCCCSc1n[nH]c(N)n1,,inconclusive: 14%
O=C(NCCC1=CCCCC1)C1CCN(S(=O)(=O)c2cnc[nH]2)CC1,,inconclusive: -3.72%
COc1cc(C(=O)NNC(=O)c2ccccc2OCc2c(C)noc2C)cc(OC)c1OC,,inactive: -9.69%
CCOC(=O)c1c(NC(=O)c2c(Br)cnn2C)c(C#N)nn1-c1ccccc1,,inconclusive: 7.44%
Cc1[nH]c(=O)c(C#N)c2c1CSC(C)(C)C2,,inconclusive: 2.53%
CCN1CCN(C(=O)/C=C/c2c(F)cccc2Cl)CC1,,inactive: -1.17%
Cc1ccc(C(=O)CSc2nnc(-c3ccncc3)n2C)cc1,,inconclusive: -15.2%
COC(=O)Cc1[nH]n(-c2nc3ccccc3s2)c(=O)c1C(C)=Nc1ccc(Cl)cc1,"inconclusive: 11.2 µM [falling, partial curve, poor fit]",
CC(=O)c1c(C)[nH]c(C(=O)Nc2cccc3ccccc23)c1C,,inactive: -4.58%
O=C(c1ccc2c(c1)N(Cc1cccc(Cl)c1)C(=O)c1ccccc1S2(=O)=O)N1CCCCCC1,,inconclusive: -3.64%
COc1ccccc1NS(=O)(=O)c1ccc(C)c(NC(=O)c2ccc(S(=O)(=O)N3CCCCCC3)cc2)c1,,inactive: 0.792%
O=C(NC1CCN(C(=S)Nc2ccc(F)cc2)CC1)C1CCCCC1,,inactive: -5.68%

Compound,Potency,"activity change, negative = inhibition"
O=C(NCCc1ccccc1)/C(=C\c1ccccc1)NC(=O)c1ccco1,,inconclusive: 9.88%
CCNC(=S)NNC(=O)c1csc2c1CCCC2,"inconclusive: 17.8 µM [falling, partial curve, poor fit]",
S=C(Nc1ccccc1)Nc1cccc(Br)c1,,inactive: 7.21%
CC(=O)N=c1sc2nc3ccccc3nc2n1N(C(C)=O)C(C)=O,,inconclusive: 7.87%
C=C1CCN([C@H](C(=O)OCc2cccc(C)c2)C(C)C)S(=O)(=O)c2ccccc21,,inconclusive: 13.4%
CC(=O)N(CCP(=O)(c1ccccc1)c1ccccc1)Cc1ccco1,,inconclusive: 5.49%
CCCC1=Nc2cc(C(=O)NCCCOC(C)C)ccc2Sc2ccccc21,"inconclusive: 20.6 µM [falling, partial curve]",
O=c1[nH]cc(S(=O)(=O)Nc2ccc3c(c2)OCO3)c(=O)[nH]1,,inconclusive: -24.4%
Cc1nc2c(cc1C#N)C(=O)c1ccccc1-2,,inconclusive: -13%
CC(C)=NNc1nc(-c2ccccc2)cs1,"inconclusive: 8.2 µM [falling, partial curve]",
CC(C)OC(=O)CCCCCN1C(=O)CSC1=S,"inconclusive: 20.6 µM [falling, single point]",
CC1=C/C(=C(/c2cc(C)c(O)c(Br)c2)c2ccccc2S(=O)(=O)O)C=C(Br)C1=O,,inconclusive: 0.0227%
O=C(O)c1ccc(-c2nc(-c3ccccc3)cs2)cc1,"inconclusive: 12.6 µM [falling, partial curve]",
N#CCC(=O)Nc1ccc(C(=O)NNC(=S)NC2CCCCC2)cc1,,inconclusive: -2.08%
CCOC(=O)c1c(NC(=O)CSC(=S)N(C)C)sc(C)c1C,,inconclusive: -1.92%
CCOC(=O)c1cc(CC)sc1NC(=O)CC1SC(N)=NC1=O (stereo not drawn),,inconclusive: 4.7%
CCN(CC)S(=O)(=O)c1cc(NC(=O)C(=O)c2c(-c3ccccc3)cc3ccccn23)ccc1C,,inconclusive: 23.9%
CNC(=O)/C(C#N)=C/c1ccc(-c2ccc(Cl)cc2)o1,,inconclusive: -0.959%
CC1CCCCC1NC(=O)/C(C#N)=C/c1ccc2c(c1)OCCO2 (stereo not drawn),"inconclusive: 23.1 µM [falling, single point]",
CCCC(=O)Nc1ccc(NC(=S)NC(=O)c2ccccc2[N+](=O)[O-])cc1,"inconclusive: 13 µM [falling, partial curve]",
Cc1ccc(Nc2nc(/N=C/N(C)C)n[nH]2)cc1C,"inconclusive: 35.5 µM [falling, single point]",
Cc1c(C)n(C(=O)CSc2ncn[nH]2)c2ccccc12,,inconclusive: -2.8%
O=C(Nc1ccc(Cl)cc1Cl)c1ccc2c(c1)OCCO2,"inconclusive: 16.4 µM [falling, partial curve, poor fit]",
CC1=NN(Cc2ccccc2)C(=O)C1C(c1ccccc1)C(C#N)C#N (stereo not drawn),"inconclusive: 12.6 µM [falling, partial curve, poor fit]",
Cc1cccc(NC(=S)NNC(=O)c2nn(C)cc2Cl)c1,"inconclusive: 35.5 µM [falling, single point]",
Cc1cc(=O)n2[nH]c(-c3ccccc3Cl)cc2n1,,inconclusive: -0.52%

# Some of these compounds in order of number of heavy atoms, largest number first.
Compound,Potency,"activity change, negative = inhibition"
CC1=C/C(=C(/c2cc(C)c(O)c(Br)c2)c2ccccc2S(=O)(=O)O)C=C(Br)C1=O,,inconclusive: 0.0227%
CCOC(=O)c1cc(CC)sc1NC(=O)CC1SC(N)=NC1=O (stereo not drawn),,inconclusive: 4.7%
O=C(O)c1ccc(-c2nc(-c3ccccc3)cs2)cc1,"inconclusive: 12.6 µM [falling, partial curve]",
Cc1cc(=O)n2[nH]c(-c3ccccc3Cl)cc2n1,,inconclusive: -0.52%
S=C(Nc1ccccc1)Nc1cccc(Br)c1,,inactive: 7.21%
CC(C)=NNc1nc(-c2ccccc2)cs1,"inconclusive: 8.2 µM [falling, partial curve]",
